The nature of the assay: qHTS Assay for Lipid Storage Modulators in Drosophila S3 Cells.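 For cell number change: cells counted by Cell Tracker Red CMTPX staining in the red channel.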 As to conditions: BODIPY lipid droplet fluorescence, 18-24 h; for cell number change: measured here: cell count max response, cells fed with added oleic acid. Put shortly: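 Laser-scanning cytometry quantifies lipid droplet accumulation (500–530 nm total intensity; droplet/cell object ratio) in oleic acid-fed (400 uM added) Drosophila S3 cells treated with a concentration series. 20 uM Triacsin C defined 100% inhibition.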
On the technique in general: In qHTS, concentration-response curves come from the screen itself.

Where [1] appears, read: measured here: lipid fluorescence (Fed channel) AC50, cells fed with added oleic acid.
[2] abbreviates: measured here: cell number channel AC50, cells fed with added oleic acid.

The structures appear in SMILES notation. The list shows a part of the results. The main result of the screen is listed elsewhere. These columns were measured beside it and carry no call. Compounds called inactive in the main read-out are mostly missing here. The note in brackets gives the kind of curve behind each potency; many fits are weak.

`CCCCCCCCCCSc1n[nH]c(N)n1`: the cell number change came out at 23.8%. Also, under setting [1], the AC50 is 29.1 nM [rising, full curve]. For `CC(=O)Nc1ccc(NC(=O)C2CCN(C(=O)c3cccs3)CC2)cc1`, the cell number change turned out to be 0.545%. Besides, under setting [1], the AC50 was 29100 nM [rising, single point].

With `COc1ccc(OC)c(S(=O)(=O)N2CCC(C(=O)Nc3cc(C)ccc3C)CC2)c1`, the cell number change was found to be 19.2%.

`O=C(CN1C(=O)NC2(CCCCC2)C1=O)Nc1ccc2[nH]c(=O)[nH]c2c1`: the cell number change was -13.8%. For the same compound, the AC50 under setting [2] was 6510 nM [falling, single point]. Besides, the AC50 under setting [1] was 92 nM [falling, full curve, poor fit]. Regarding `O=C(O)CSCC(=O)N1CCN(S(=O)(=O)c2cc(Cl)cc(Cl)c2)CC1`, the cell number change came to 1.9%. Also, the AC50 under setting [1] is 130 nM [falling, full curve]. With `COc1cc(C(=O)NNC(=O)c2ccccc2OCc2c(C)noc2C)cc(OC)c1OC`, the cell number change was found to be 31.7%. Moreover, under setting [2], the AC50 is 29100 nM [rising, single point]. Regarding `NNC(=O)CNC(c1ccccc1)c1cc(Br)ccc1NC(=O)CCN1CCOCC1` (centres undefined), the cell number change was -15.8%. For the same compound, the AC50 under setting [2] is 206 nM [falling, full curve, poor fit]. On to `CCOC(=O)c1c(NC(=O)c2c(Br)cnn2C)c(C#N)nn1-c1ccccc1`, for which the cell number change is -1.53%. Besides, the AC50 under setting [1] was 2910 nM [falling, partial curve, poor fit].

Turning to `Cc1ccc(SCC(=O)N(Cc2nc(-c3ccccc3)no2)C(C)C)cc1`, the cell number change was determined as 16%. As for `Cc1ccccc1/C=N/n1c(-c2ccccn2)n[nH]c1=S`, the cell number change is -8.39%. Moreover, the AC50 under setting [1] was 731 nM [falling, full curve, poor fit]. Turning to `CCCCN(Cc1ccccc1)C(=O)C1CCC(=O)N(CCc2ccccn2)C1` (centres undefined), under setting [1], the AC50 is 29100 nM [rising, partial curve, poor fit].

For the compound `Cc1ccc(NC(=O)COC(=O)c2cc(=O)c3cc(F)ccc3o2)cc1`, the cell number change is 3.5%.

Turning to `CCCCCCCCCC(=O)NNC(=O)c1c(O)c2ccccc2n(CCC)c1=O`, the cell number change amounted to 15.3%. Besides, the AC50 under setting [1] was 259 nM [rising, full curve, poor fit]. As for `CC(=O)Nc1cccc(OC(=O)N2CCOCC2)c1`, the cell number change is -4.96%. In addition, under setting [1], the half-maximal activity concentration (AC50) is 16400 nM [falling, single point]. On to `Cc1ccccc1C(=O)NC(=S)Nc1cccc(NC(=O)C(C)C)c1`, for which the cell number change is -30.8%. Also, the AC50 under setting [1] was 6510 nM [falling, single point]. `Cc1ccc(C(=O)c2ccc(N3CCN(C)CC3)c([N+](=O)[O-])c2)cc1`: the cell number change is -16.7%. In addition, the AC50 under setting [2] is 29.1 nM [falling, full curve, poor fit]. Turning to `C/C(=N/NC(=O)c1ccc(Br)o1)c1ccc(C)o1`, the cell number change was -3.72%. The AC50 under setting [1] was 2910 nM [rising, partial curve].

Regarding `COc1ccc2cc(CCOC3CCCCO3)ncc2c1` (centres undefined), the cell number change is -8.25%. The concentration at half-maximal activity (AC50) under setting [1] was 517 nM [rising, full curve]. Regarding `CC(Oc1ccccc1)C(=O)N/N=C/c1ccccn1` (centres undefined), the cell number change was 26.4%. On to `CC(=O)N1c2ccc(S(=O)(=O)NCCC(=O)NCCc3ccc(Cl)cc3)cc2CC1C` (centres undefined), for which the cell number change was 11.3%. In addition, the half-maximal activity concentration (AC50) under setting [1] is 29100 nM [rising, single point]. On to `C=CCn1c(SCC(=O)Nc2sccc2C(N)=O)nc2sc(CC)cc2c1=O`, for which the cell number change was -9.53%. Further, the AC50 under setting [2] is 411 nM [rising, full curve]. With `CCCOc1ccc(N2C(=O)CC(SCC(N)C(=O)OCC)C2=O)cc1` (centres undefined), the cell number change was -5.29%.

For the compound `Cc1ccc(NC(=O)N/C=C/c2ccccc2)cc1`, the cell number change is -20.6%. In addition, the AC50 under setting [1] is 20600 nM [falling, single point]. Regarding `CSc1ccc(CNC(=O)Cn2nc(C)c3c(C)n(-c4ccc(C)cc4)nc3c2=O)cc1`, the cell number change is -4.45%. For the same compound, the half-maximal activity concentration (AC50) under setting [1] is 29100 nM [rising, single point].

On to `CC(C)OP(=O)(OC(C)C)C(Nc1ccccc1)c1cccc([N+](=O)[O-])c1` (centres undefined), for which the cell number change was -11.2%. For the same compound, the AC50 under setting [1] is 16400 nM [rising, partial curve, poor fit]. In the case of `CC(C)(C)Nc1nc2nonc2nc1NC(C)(C)C`, the cell number change is -12.9%. For `Cc1oc(C(C)(C)C)cc1C(=O)Nc1ccc2c(c1)OCCO2`, the cell number change turned out to be 35.7%. Further, the AC50 under setting [2] was 32600 nM [rising, single point]. With `O=c1cc(-c2cccc(F)c2)[nH]c2ccccc12`, the AC50 under setting [2] is 259 nM [falling, partial curve, poor fit]. In the case of `CCOC(=O)N1CCN(S(=O)(=O)c2ccc(C(=O)Nc3nnc(CC)o3)cc2)CC1`, the cell number change stood at 200%. Further, under setting [1], the half-maximal activity concentration (AC50) is 92 nM [falling, full curve, poor fit].

On to `COc1ccc(C(=O)c2c(C(F)(F)F)oc3c2C(=O)c2ccccc2C3=O)cc1OC`, for which the cell number change is -43.1%. Further, under setting [2], the concentration at half-maximal activity (AC50) is 4610 nM [falling, full curve, poor fit]. Moreover, under setting [1], the concentration at half-maximal activity (AC50) is 2910 nM [falling, full curve]. For the compound `CC(C)CC(=O)Nc1cc([N+](=O)[O-])ccc1Cl`, the cell number change was determined as 2.45%. Besides, the AC50 under setting [1] was 1460 nM [rising, partial curve]. As for `Nc1c(N(Cc2ccco2)C(=O)COc2ccccc2)c(=O)[nH]c(=O)n1Cc1ccccc1`, the cell number change worked out at 1.68%. The AC50 under setting [1] was 4.61 nM [rising, full curve, poor fit]. Consider `NS(=O)(=O)c1ccc(CCNC(=O)c2cncc(Br)c2)cc1`, for which the cell number change was -14.8%. Take `O=C(COC(=O)c1ccc2c(c1Cl)C(=O)c1ccccc1C2=O)NC1CC1`: the cell number change was -31.5%. For the same compound, the AC50 under setting [2] is 29100 nM [falling, single point]. Moreover, under setting [1], the AC50 was 73.1 nM [rising, full curve, poor fit]. As for `Cc1cc(NO)c(C(C)C)cc1N=O`, the cell number change was 20.6%. Moreover, the AC50 under setting [2] was 7310 nM [falling, partial curve]. The AC50 under setting [1] was 366 nM [falling, full curve]. As to `COc1ccc(CCN2CC(C(=O)NCc3nc4ccccc4n3C)CCC2=O)cc1` (centres undefined), the cell number change was -29%. Moreover, under setting [1], the AC50 was 651 nM [falling, single point]. Take `O=C(CN1C(=O)/C(=C/c2ccccc2F)Sc2ccccc21)NCC1CCCO1` (centres undefined): the cell number change was -21.5%. Besides, the AC50 under setting [1] was 2590 nM [rising, single point]. For `COc1ccccc1CNC(=O)C(CCSC)NS(=O)(=O)c1ccc2c(c1)oc(=O)n2C` (centres undefined), the cell number change was -15.5%. Consider `COc1ccc(NC(=O)Nc2ccccc2F)cc1`, for which the cell number change was 51.7%. The AC50 under setting [2] was 8200 nM [rising, partial curve, poor fit]. As for `O=C(N/C(=C\c1ccc(Br)cc1)c1nc2ccccc2[nH]1)c1ccco1`, the cell number change is -16.3%. For the same compound, the AC50 under setting [1] was 29100 nM [falling, single point].

The term AC50 denotes the concentration giving half of the maximal activity seen.

These data come from PubChem BioAssay AID2685 (National Center for Advancing Translational Sciences (NCATS), 2010).
